# Reference: patent US20170246263A1 (SHIRE HUMAN GENETIC THERAPIES, published 2017)
# The chains behind the UniProt entries cited, without tags or fusion partners. Where a name states a change or a piece, a line headed by the entry shows the natural chain unless it says otherwise.
# UniProt Q99523: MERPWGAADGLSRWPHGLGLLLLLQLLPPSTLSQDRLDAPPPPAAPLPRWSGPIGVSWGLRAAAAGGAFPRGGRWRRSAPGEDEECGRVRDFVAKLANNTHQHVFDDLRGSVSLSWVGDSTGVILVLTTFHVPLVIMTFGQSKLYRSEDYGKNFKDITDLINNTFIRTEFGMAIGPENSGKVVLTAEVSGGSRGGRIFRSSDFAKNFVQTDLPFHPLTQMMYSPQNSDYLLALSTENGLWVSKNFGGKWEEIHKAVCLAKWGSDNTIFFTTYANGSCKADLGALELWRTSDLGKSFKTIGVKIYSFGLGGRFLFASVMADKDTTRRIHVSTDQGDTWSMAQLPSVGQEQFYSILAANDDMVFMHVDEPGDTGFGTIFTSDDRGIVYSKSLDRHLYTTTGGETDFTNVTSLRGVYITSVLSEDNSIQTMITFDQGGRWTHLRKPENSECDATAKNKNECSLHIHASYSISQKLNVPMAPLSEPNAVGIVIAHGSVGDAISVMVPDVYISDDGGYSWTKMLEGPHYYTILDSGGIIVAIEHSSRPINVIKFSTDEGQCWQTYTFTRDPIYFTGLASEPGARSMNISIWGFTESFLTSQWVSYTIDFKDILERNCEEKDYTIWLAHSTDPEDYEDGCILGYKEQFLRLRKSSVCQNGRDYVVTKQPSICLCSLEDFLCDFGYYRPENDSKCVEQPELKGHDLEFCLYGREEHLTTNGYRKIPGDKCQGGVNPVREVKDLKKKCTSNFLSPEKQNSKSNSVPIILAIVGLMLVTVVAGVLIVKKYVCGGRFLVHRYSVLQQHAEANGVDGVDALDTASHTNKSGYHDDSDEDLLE
# No constants are given. Whether binding was seen depends on the method and setting. Some binding calls cover weakened binding; strength is not graded here. Tags and fused reporters may be left off the sequences shown.
# Biological target: SORT1 on SORT1 overexpressing cells (Homo sapiens (Human)) (UniProt Q99523)
# Test: binding/uptake assay on SORT1 overexpressing cells
row,binding,Binder
1,binds,Naglu-SapDC fusion protein (enzyme) DEAREAAAVRALVARLLGPGPAADFSVSVERALAAKPGLDTYSLGGGGAARVRVRGSTGVAAAAGLHRYLRDFCGCHVAWSGSQLRLPRPLPAVPGELTEATPNRYRYYQNVCTQSYSFVWWDWARWEREIDWMALNGINLALAWSGQEAIWQRVYLALGLTQAEINEFFTGPAFLAWGRMGNLHTWDGPLPPSWHIKQLYLQHRVLDQMRSFGMTPVLPAFAGHVPEAVTRVFPQVNVTKMGSWGHFNCSYSCSFLLAPEDPIFPIIGSLFLRELIKEFGTDHIYGADTFNEMQPPSSEPSYLAAATTAVYEAMTAVDTEAVWLLQGWLFQHQPQFWGPAQIRAVLGAVPRGRLLVLDLFAESQPVYTRTASFQGQPFIWCMLHNFGGNHGLFGALEAVNGGPEAARLFPNSTMVGTGMAPEGISQNEVVYSLMAELGWRKDPVPDLAAWVTSFAARRYGVSHPDAGAAWRLLLRSVYNCSGEACRGHNRSPLVRRPSLQMNTSIWYNRSDVFEAWRLLLTSAPSLATSPAFRYDLLDLTRQAVQELVSLYYEEARSAYLSKELASLLRAGGVLAYELLPALDEVLASDSRFLLGSWLEQARAAAVSEAEADFYEQNSRYQLTLWGPEGNILDYANKQLAGLVANYYTPRWRLFLEALVDSVAQGIPFQQHQFDKNVFQLEQAFVLSKQRYPSQPRGDTVDLAKKIFLKYYPRWVAGSWGAPGGGGGAAAAAGGGGGGAPGGGGGAAAAAGGGGGGAPGGGGGAAAAAGGGGGGAPDGGFCEVCKKLVGYLDRNLEKNSTKQEILAALEKGCSFLPDPYQKQCDQFVAEYEPVLIEILVEVMDPSFVCLKIGACPSAHKPLLGTEKCIWGPSYWCQNTETAAQCNAVEHCKRHVWN
2,binds,"Naglu-tPRGN fusion protein (enzyme, also called Naglu-tPGRN) DEAREAAAVRALVARLLGPGPAADFSVSVERALAAKPGLDTYSLGGGGAARVRVRGSTGVAAAAGLHRYLRDFCGCHVAWSGSQLRLPRPLPAVPGELTEATPNRYRYYQNVCTQSYSFVWWDWARWEREIDWMALNGINLALAWSGQEAIWQRVYLALGLTQAEINEFFTGPAFLAWGRMGNLHTWDGPLPPSWHIKQLYLQHRVLDQMRSFGMTPVLPAFAGHVPEAVTRVFPQVNVTKMGSWGHFNCSYSCSFLLAPEDPIFPIIGSLFLRELIKEFGTDHIYGADTFNEMQPPSSEPSYLAAATTAVYEAMTAVDTEAVWLLQGWLFQHQPQFWGPAQIRAVLGAVPRGRLLVLDLFAESQPVYTRTASFQGQPFIWCMLHNFGGNHGLFGALEAVNGGPEAARLFPNSTMVGTGMAPEGISQNEVVYSLMAELGWRKDPVPDLAAWVTSFAARRYGVSHPDAGAAWRLLLRSVYNCSGEACRGHNRSPLVRRPSLQMNTSIWYNRSDVFEAWRLLLTSAPSLATSPAFRYDLLDLTRQAVQELVSLYYEEARSAYLSKELASLLRAGGVLAYELLPALDEVLASDSRFLLGSWLEQARAAAVSEAEADFYEQNSRYQLTLWGPEGNILDYANKQLAGLVANYYTPRWRLFLEALVDSVAQGIPFQQHQFDKNVFQLEQAFVLSKQRYPSQPRGDTVDLAKKIFLKYYPRWVAGSWGAPGGGGGAAAAAGGGGGGAPGGGGGAAAAAGGGGGGAPGGGGGAAAAAGGGGGGAPTKCLRREAPRWDAPLRDPALRQLL"

row,Binder,binding
1,Naglu-SPP fusion protein (enzyme) DEAREAAAVRALVARLLGPGPAADFSVSVERALAAKPGLDTYSLGGGGAARVRVRGSTGVAAAAGLHRYLRDFCGCHVAWSGSQLRLPRPLPAVPGELTEATPNRYRYYQNVCTQSYSFVWWDWARWEREIDWMALNGINLALAWSGQEAIWQRVYLALGLTQAEINEFFTGPAFLAWGRMGNLHTWDGPLPPSWHIKQLYLQHRVLDQMRSFGMTPVLPAFAGHVPEAVTRVFPQVNVTKMGSWGHFNCSYSCSFLLAPEDPIFPIIGSLFLRELIKEFGTDHIYGADTFNEMQPPSSEPSYLAAATTAVYEAMTAVDTEAVWLLQGWLFQHQPQFWGPAQIRAVLGAVPRGRLLVLDLFAESQPVYTRTASFQGQPFIWCMLHNFGGNHGLFGALEAVNGGPEAARLFPNSTMVGTGMAPEGISQNEVVYSLMAELGWRKDPVPDLAAWVTSFAARRYGVSHPDAGAAWRLLLRSVYNCSGEACRGHNRSPLVRRPSLQMNTSIWYNRSDVFEAWRLLLTSAPSLATSPAFRYDLLDLTRQAVQELVSLYYEEARSAYLSKELASLLRAGGVLAYELLPALDEVLASDSRFLLGSWLEQARAAAVSEAEADFYEQNSRYQLTLWGPEGNILDYANKQLAGLVANYYTPRWRLFLEALVDSVAQGIPFQQHQFDKNVFQLEQAFVLSKQRYPSQPRGDTVDLAKKIFLKYYPRWVAGSWGAPGGGGGAAAAAGGGGGGAPGGGGGAAAAAGGGGGGAPGGGGGAAAAAGGGGGGAPQDRLDAPPPPAAPLPRWSGPIGVSWGLRAAAAGGAFPRGGRWRR,binds
